The values below come from paper PMC11633376.

By UniProt entry, the sequences of proteins in these tests, tags left out.
UniProt A0R0B3: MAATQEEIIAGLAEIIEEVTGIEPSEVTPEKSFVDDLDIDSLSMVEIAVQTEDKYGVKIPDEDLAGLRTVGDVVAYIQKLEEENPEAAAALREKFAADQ

In this assay the target is Mycobacterium smegmatis mycobacterial membrane protein large 5 (MmpL5) transporter (M. smegmatis) (UniProt A0QS80). In words: cryo-EM structure; single-particle cryo-EM of the purified MmpL5 sample (2.0 mg/mL, 20 mM Na-HEPES pH 7.5, 0.005% LMNG) holding copurified endogenous AcpM; 2.81 Å; both purified.

These are yes or no findings as the source states them, for the method shown. Binding seen in cells or lysates may run through a third protein. A result given as binding can be weak or reduced; the word gives no strength.

Take “Mycobacterium smegmatis meromycolate extension acyl carrier protein M (AcpM) (from UniProt A0R0B3 1-99)”: the binding entry was “binds”.
